{
  "source": "patent US10597674B2",
  "about": "“HPPD variants and methods of use” (BASF Agricultural Solutions Seed, US LLC, priority 2015, dated 2020)",
  "molecules": {"B1": {"name": "SEQ ID NO:99 (protein)", "chain": "MADLYENPMGLMGFEFIEFASPTPGTLEPIFEIMGFTKVATHRSKNVHLYRQGEINLILNNEPNSIASYFAAEHGPSVCGMAFRVKDSQKAYNRALELGAQPIHIDTGPMELNLPAIKGIGGAPLYLIDRFGEGSSIYDIDFVYLEGVERNPVGAGLKVIDHLTHNVYRGRMVYWANFYEKLFNFREARYFDIKGEYTGLTSKAMSAPDGMIRIPLNEESSKGAGQIEEFLMQFNGEGIQHVAFLTDDLVKTWDALKKIGMRFMTAPGDEYYEMLEGRLPDHGEPVDQLQARGILLDGSSVEGDKRLLLQIFSETLMGPVFFEFIQRKGDDGFGPDSVKRLFESVERDQVRRGVLTAD", "modifications": "mutant HPPD polypeptide"}, "B2": {"name": "100 (protein)", "chain": "B1 chain with M264L, D330H, V338F, R340V, S344Q, V345M", "modifications": "mutant HPPD polypeptide"}, "B3": {"name": "105 (protein)", "chain": "B1 chain with R213K, M264L, D336H, V338F, S344Q, V345M", "modifications": "mutant HPPD polypeptide"}, "B4": {"name": "107 (protein)", "chain": "B1 chain with R213K, D336H", "modifications": "mutant HPPD polypeptide"}},
  "note": "Where a chain is given by its changes, count along the chain named. Some entries share one result that the patent states for a list of compounds.",
  "data": [
    {"tested_on": "HPPD polypeptides (purified, wild-type SEQ ID NO:1 and mutants)", "assay": "Coupled HPPD activity assay: ki determination, competitive inhibition fit", "assay_type": "biochemical, Pseudomonas fluorescens", "settings": "inhibitor Cmpd. 1", "protocol": "(§1) For the generation of purified HPPD polypeptide samples, cells were grown for 3 h at 37° C. in 5 ml LB medium containing 100 μg/ml ampicillin in a 50 ml shaker flask at 140 rpm. One ml of this starter culture was used as inoculum for the expression culture. […] At an OD600 of about 0.6, IPTG (Roth, Karlsruhe, Germany) was added to a concentration of 0.4 mM. After further growth for 60 min at 37° C., the temperature was reduced to 28° C. and growth continued for another 18 h at 140 rpm. Cells were harvested by centrifugation at 4° C., 3200 g for 30 min in 50 ml Falcon tubes and cell pellets were stored at −80° C. Cells were lysed and his-tagged protein was purified according to manufacturer protocol of the used Ni-NTA Fast Start Kit (Qiagen, Hilden, Germany) with following adaptions for increased yield: cells from 50 ml culture were lysed in 4 ml and lysate supernatant was generated by centrifugation for 15 min at 18000 g. The amount of matrix in the columns was increased by addition of 1 ml of NiNTA Superflow (Qiagen, Hilden, Germany) each and extensively re-buffered into 20 mM Tris (pH 7.6) (Merck, Darmstadt, Germany) Lysate supernatant was applied and His-tagged protein was bound to the Ni-NTA matrix by incubation for 1 h at 4° C.\n(§2) The resulting protein samples were re-buffered into 20 mM Tris, 20% Glycerol (pH 7.8) (Sigma-Aldrich, St. Louis, USA) by use of Zeba™ Spin Desalting Columns, 7K MWCO, 10 mL (Thermo Fisher Scientific, Waltham, USA) and analysed for protein concentration and purity by Abs280 (NANODROP 8000, Thermo Fisher Scientific, Waltham, USA) and SDS-PAGE. The concentrations of purified proteins were generally in the range of 0.6-4.6 mg/ml by an estimated purity of about 90%.\n(§3) ([E]=enzyme concentration).\n(§4) The assay solutions used for determination of ki values were composed in the same way containing six different concentrations of HPP substrate (0-1350 μM) for each of the four inhibitor concentrations tested. The inhibitors were diluted in 140 mM Tris, 0.05% Pluronic F-68 (Sigma-Aldrich, St. Louis, USA) and applied in concentrations adopted for the respective HPPD polypeptide/inhibitor pairs to generate dynamic data (FIG. 4a-d); generally, their concentrations in the HPPD polypeptide/inhibitor sample were in the range from 0 to 0.0012 M.\n(§5) The mutant HPPD polypeptides represented here are examples by a way of illustration, not by a way of limitation. Data were obtained by measuring the initial reaction rates with increasing concentrations of Cmpd. […] Generally, six different concentrations of HPP substrate (0-1350 μM) and four different concentrations of the respective inhibitor were applied (see FIG. 4). The inhibitor concentrations were adopted for the respective HPPD polypeptide/inhibitor pairs to generate dynamic data, i.e. variants with lower tolerance were analyzed in a range of lower inhibitor concentrations, and concentrations of up to 1200 μM were used for variants with maximized tolerance. GraphPad Prism (version 6.00 for Windows, GraphPad Software, La Jolla Calif. USA) were used for data analysis and fitting of kinetic constants applying constraints according to a competitive inhibition mode. Where obvious outliers occurred, or activities obtained at very high substrate concentrations didn't obey the mathematics underlying the competitive inhibition mode, respective values were excluded from the fit.", "values": [
      {"molecule": "B1", "increase of ki towards Cmpd. 1 compared to SEQ ID NO:2": "more than 100 fold"},
      {"molecule": "B2", "increase of ki towards Cmpd. 1 compared to SEQ ID NO:2": "more than 100 fold"},
      {"molecule": "B3", "increase of ki towards Cmpd. 1 compared to SEQ ID NO:2": "more than 100 fold"},
      {"molecule": "B4", "increase of ki towards Cmpd. 1 compared to SEQ ID NO:2": "more than 100 fold"}
    ]},
    {"molecular_target": "HPPD polypeptides (purified, wild-type SEQ ID NO:1 and mutants)", "assay": "Coupled HPPD activity assay: ki determination, competitive inhibition fit", "assay_type": "biochemical, Pseudomonas fluorescens", "settings": "inhibitor Cmpd. 2", "protocol": "as §1, §2, §3, §4, §5", "values": [
      {"molecule": "B1", "ki improvement against Cmpd. 2 compared to SEQ ID NO:1 and SEQ ID NO:2": "up to 90 fold"},
      {"molecule": "B2", "ki improvement against Cmpd. 2 compared to SEQ ID NO:1 and SEQ ID NO:2": "up to 90 fold"},
      {"molecule": "B3", "ki improvement against Cmpd. 2 compared to SEQ ID NO:1 and SEQ ID NO:2": "up to 90 fold"},
      {"molecule": "B4", "ki improvement against Cmpd. 2 compared to SEQ ID NO:1 and SEQ ID NO:2": "up to 90 fold"}
    ]},
    {"molecular_target": "HPPD polypeptides (purified, wild-type SEQ ID NO:1 and mutants)", "assay": "Coupled HPPD activity assay: ki determination, competitive inhibition fit", "assay_type": "biochemical, Pseudomonas fluorescens", "settings": "inhibitor mesotrione", "protocol": "as §1, §2, §3, §4, §5", "units": {"ki improvement against mesotrione (MST) compared to SEQ ID NO:1 and SEQ ID NO:2": "fold"}, "values": [
      {"molecule": "B1", "ki improvement against mesotrione (MST) compared to SEQ ID NO:1 and SEQ ID NO:2": "≤ 7"},
      {"molecule": "B2", "ki improvement against mesotrione (MST) compared to SEQ ID NO:1 and SEQ ID NO:2": "≤ 7"},
      {"molecule": "B3", "ki improvement against mesotrione (MST) compared to SEQ ID NO:1 and SEQ ID NO:2": "≤ 7"},
      {"molecule": "B4", "ki improvement against mesotrione (MST) compared to SEQ ID NO:1 and SEQ ID NO:2": "≤ 7"}
    ]}
  ]
}
